According to PMC6834558:
These are yes or no findings as the source states them, for the method shown. Binding seen in cells or lysates may run through a third protein. Some entries that bind do so weakly or less than the wild type. For part of these data: Tags and fused reporters may be left off the sequences shown. Values belong to the molecule of their own block, whether it stands above or below them.

By UniProt entry, the sequences of proteins in these tests, tags left out. Residues count along the entry.
UniProt P08581, residues 25-1390: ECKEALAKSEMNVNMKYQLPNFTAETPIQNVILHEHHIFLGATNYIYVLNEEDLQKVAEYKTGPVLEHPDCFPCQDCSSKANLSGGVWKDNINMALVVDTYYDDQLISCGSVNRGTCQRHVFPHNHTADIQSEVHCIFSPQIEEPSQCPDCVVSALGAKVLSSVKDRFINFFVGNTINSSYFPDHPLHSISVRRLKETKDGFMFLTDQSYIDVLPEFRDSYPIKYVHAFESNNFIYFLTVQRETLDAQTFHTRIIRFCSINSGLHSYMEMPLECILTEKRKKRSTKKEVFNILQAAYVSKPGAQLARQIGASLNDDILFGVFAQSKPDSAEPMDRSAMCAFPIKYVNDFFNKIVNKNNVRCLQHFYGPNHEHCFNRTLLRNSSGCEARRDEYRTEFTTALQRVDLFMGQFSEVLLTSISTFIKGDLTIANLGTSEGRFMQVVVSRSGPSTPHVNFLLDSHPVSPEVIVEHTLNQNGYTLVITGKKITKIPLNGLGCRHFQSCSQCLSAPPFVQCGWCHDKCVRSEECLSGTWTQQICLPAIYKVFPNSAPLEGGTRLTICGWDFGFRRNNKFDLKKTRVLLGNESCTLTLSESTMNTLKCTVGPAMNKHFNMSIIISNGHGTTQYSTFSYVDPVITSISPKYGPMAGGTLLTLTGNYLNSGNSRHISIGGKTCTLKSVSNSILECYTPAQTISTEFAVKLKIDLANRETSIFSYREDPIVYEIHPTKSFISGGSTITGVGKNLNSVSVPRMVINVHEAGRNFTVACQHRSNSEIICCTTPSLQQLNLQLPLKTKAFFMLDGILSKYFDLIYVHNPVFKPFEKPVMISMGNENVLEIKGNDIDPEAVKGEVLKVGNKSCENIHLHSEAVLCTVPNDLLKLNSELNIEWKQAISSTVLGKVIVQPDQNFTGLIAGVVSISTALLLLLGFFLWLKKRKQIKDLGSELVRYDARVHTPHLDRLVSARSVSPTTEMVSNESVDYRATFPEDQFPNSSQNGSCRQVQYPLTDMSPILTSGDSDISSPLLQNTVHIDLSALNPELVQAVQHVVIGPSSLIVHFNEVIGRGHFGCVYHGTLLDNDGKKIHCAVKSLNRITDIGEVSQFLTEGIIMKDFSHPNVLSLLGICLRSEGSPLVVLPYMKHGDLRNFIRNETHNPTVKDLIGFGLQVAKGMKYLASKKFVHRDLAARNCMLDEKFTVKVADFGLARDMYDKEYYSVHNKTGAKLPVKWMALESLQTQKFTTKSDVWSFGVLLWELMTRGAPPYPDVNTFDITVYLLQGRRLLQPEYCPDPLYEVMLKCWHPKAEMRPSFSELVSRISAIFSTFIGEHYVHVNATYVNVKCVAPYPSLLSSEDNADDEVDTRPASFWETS

Assays:
[1] = biological target: T1, EGFL9-V5 (overexpressed in HMLE/EGFL9 cells) (UniProt Q6UY11); experiment: co-IP; HMLE/EGFL9 cell lysate (10 mM CHAPS, 50 mM Tris-HCl pH 8, 150 mM NaCl, 0.5% NP-40, 2 mM EDTA); reciprocal: IP with anti-V5 and blot with anti-cMET, IP with anti-cMET and blot with anti-V5; 500 ug protein, 2 ug antibody, 12 h at 4 °C; IgG as IP control
T1 sequence: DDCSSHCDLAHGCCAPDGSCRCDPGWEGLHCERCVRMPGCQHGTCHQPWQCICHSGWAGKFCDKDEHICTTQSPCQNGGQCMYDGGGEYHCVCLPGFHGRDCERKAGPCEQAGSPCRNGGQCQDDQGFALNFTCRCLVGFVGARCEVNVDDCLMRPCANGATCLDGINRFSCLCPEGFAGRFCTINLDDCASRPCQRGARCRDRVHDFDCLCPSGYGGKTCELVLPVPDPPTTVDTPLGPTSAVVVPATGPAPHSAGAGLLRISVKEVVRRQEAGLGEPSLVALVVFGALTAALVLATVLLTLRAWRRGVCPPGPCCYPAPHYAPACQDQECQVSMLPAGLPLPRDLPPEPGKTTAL

[2] = biological target: T2, EGFL9-V5 (co-transfected with cMET constructs) (UniProt Q6UY11); experiment: co-IP; V5-IP of EGFL9 with co-transfected wild-type cMET or cMETdel; cells not stated (Supplementary Fig. 7c)
T2 sequence: T1 sequence

[3] = biological target: cMET (endogenous) (human (endogenous in HMLE and SUM159)) (UniProt P08581); experiment: co-IP; HMLE/EGFL9 cell lysate (10 mM CHAPS, 50 mM Tris-HCl pH 8, 150 mM NaCl, 0.5% NP-40, 2 mM EDTA); reciprocal: IP with anti-V5 and blot with anti-cMET, IP with anti-cMET and blot with anti-V5; 500 ug protein, 2 ug antibody, 12 h at 4 °C; IgG as IP control
[4] = biological target: cMET (endogenous) (human (endogenous in HMLE and SUM159)) (UniProt P08581); experiment: co-IP; SUM159 cell lysate, both proteins endogenous; IP with anti-cMET, blot with anti-EGFL9; IgG as IP control
[5] = biological target: T3, EGFL9-VN (p3xFlag-CMV-EGFL9-VN) (UniProt Q6UY11); experiment: split reporter; BiFC with split Venus (VN 1-173, VC 155-239) in 293T cells, 1 ug of each plasmid, 48 h, live-cell confocal imaging
T3 sequence: T1 sequence

[6] = biological target: T4, EGFL9-V5 (pLent-6-EGFL9-V5, in 293T cells) (UniProt Q6UY11); experiment: co-IP; 293T cells co-transfected with pLent-6-EGFL9-V5 and p3xFlag-CMV-COA3; IP with anti-V5, blot with anti-Flag
T4 sequence: T1 sequence

B2: EGFL9 (endogenous in SUM159 cells) (protein, UniProt Q6UY11 27-383)
chain: T1 sequence
- binding [4]: binds

B3: COA3-VC (p3xFlag-CMV-COA3-VC) (protein, UniProt Q9Y2R0 1-106)
chain: MASSGAGDPLDSKRGEAPFAQRIDPTREKLTPEQLHSMRQAELAQWQKVLPRRRTRNIVTGLGIGALVLAIYGYTFYSISQERFLDELEDEAKAARARALARASGS
- binding [5]: binds

B4: 3xFlag-COA3 (p3xFlag-CMV-COA3) (protein, UniProt Q9Y2R0 1-106)
chain: B3 chain
- binding [6]: binds

Results, then the molecule that gave them:

- binding [1]: binds
Molecule: cMET (endogenous) (from UniProt P08581 25-1390) (receptor)

- binding [2]: binds
Molecule: wild-type cMET (co-transfected) (from UniProt P08581 25-1390) (receptor)

- binding [3]: binds
B1: EGFL9-V5 (overexpressed in HMLE/EGFL9 cells) (protein, UniProt Q6UY11 27-383)
chain: T1 sequence
